{
  "source": "patent US20090192220A1",
  "about": "“TREATMENT FOR SOLID TUMORS” (Ore Pharmaceuticals Inc., priority 2007, published 2009)",
  "origin": "cited, not measured here",
  "test_system": "ACAT",
  "conditions": "de Médina et al. (2004), cited from earlier work",
  "data": [
    {"smiles": "CC/C(=C(\\c1ccccc1)c1ccc(OCCN(C)C)cc1)c1ccccc1", "note": "[tamoxifen]", "values": [
      {"measurement": "IC50", "setting": "read-out: IC50 for ACAT", "result": 6.74, "unit": "µM"},
      {"measurement": "Kd", "setting": "read-out: affinity for ACAT (Kd)", "result": 6.74, "unit": "µM"}
    ]}
  ]
}
